The text below walks through data of PubChem BioAssay AID493014 (National Center for Advancing Translational Sciences (NCATS), 2011).

This assay can be described thus: qHTS Assay to Find Inhibitors of Chronic Active B-Cell Receptor Signaling. To be noted: ABC-DLBCL IkBa-CBG/CBR reporter, luminescence ratio (green luciferase fused to IkBa over red control in TMD8 lymphoma cells), 4 h. The procedure, abridged:
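Concentration-response series (up to 46 uM) were applied to TMD8 dual-reporter cells for 4 h at 37C with doxycycline. Green/red ratio, after filter-overlap correction, defined %Activity; red signal alone was normalised to basal cells and zero luminescence.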

Setting [1] is: measured here: CBR red luminescence, cell number.
[2] abbreviates: measured here: IkBa-CBG green luminescence.

Some of the results follow. The main result of the screen is listed elsewhere. These columns were measured beside it and carry no call. Compounds called inactive in the main read-out are mostly missing here. Potencies come from curve fits of mixed quality, noted in brackets.

`Cc1ccc(S(=O)(=O)c2ccc(Cl)cc2)cc1S(=O)(=O)N1CCN(C)CC1`: the concentration at half-maximal activity (AC50) (commonly the midpoint of the concentration-response curve, whichever way the signal moves) under setting [1] was 1.84 µM [rising, single point].

`CC(=O)c1sc(-c2cccc(Cl)c2)nc1C`: under setting [1], the AC50 was 12.6 µM [rising, single point].

`Cc1ccnc(NC(=O)Cc2ccc(-c3ccccc3)cc2)c1`: the AC50 under setting [1] was 35.5 µM [falling, single point].

As for `CCOC(=O)COc1ccc2ccccc2c1/C=C/[N+](=O)[O-]`, the AC50 under setting [2] was 6.51 µM [falling, single point].

For `O=C(NCc1ccccn1)Nc1ccccc1F`, the AC50 under setting [1] is 20 µM [falling, partial curve, poor fit].

As for `COc1ccc(CCN(C)C(=O)CCNC(=O)c2ccc(Br)cc2)cc1OC`, the AC50 under setting [1] is 5.62 µM [rising, single point].

On to `O=c1cccc2c1c1cc[nH]c3ccc(=O)n2c31`, for which the AC50 by setting is: under setting [1], 0.411 µM [falling, partial curve, poor fit]; under setting [2], 23.1 µM [rising, partial curve, poor fit].

As for `CCOc1ccc(-n2c(=O)c3ccccc3c3ccccc3c2=O)cc1`, the AC50 under setting [1] was 3.16 µM [falling, partial curve, poor fit].

In the case of `C/C(=N\NC(=O)c1ccccc1[N+](=O)[O-])c1c(O)cc(C)oc1=O`, under setting [1], the AC50 is 2.06 µM [falling, full curve].

Regarding `CCCCCC(=O)Nc1ccc(N2CCN(S(C)(=O)=O)CC2)cc1`, under setting [1], the AC50 was 7.31 µM [falling, single point].

As to `Cc1nc2ccc(NC(=O)c3ccc(S(=O)(=O)N(C)c4ccccc4)cc3)cc2s1`, under setting [1], the AC50 was 20.6 µM [falling, single point].

Consider `CC(=O)Nc1ccc(NC(=O)c2c(C)nn(Cc3ccccc3)c2Cl)cc1`, for which, under setting [1], the AC50 was 3.16 µM [rising, partial curve, poor fit].

For `Cc1cc2c(ccc3c2no[n+]3[O-])nn1`, the AC50 under setting [1] was 35.5 µM [rising, partial curve, poor fit].

In the case of `COc1ccc(-c2cc(C(=O)N3CCN(c4ccccc4)CC3)no2)cc1`, the AC50 under setting [1] is 12.6 µM [falling, partial curve].

Take `CCOC(=O)C1=C(C2=CCCCC2)c2ccc(OC)cc2N(S(=O)(=O)C(F)(F)F)C1C(=O)OCC` (centres undefined): under setting [2], the AC50 is 23.1 µM [falling, partial curve, poor fit].

In the case of `Cc1ccc(S(=O)(=O)CC#CCOC(=O)c2ccc([N+](=O)[O-])cc2)cc1`, the AC50 under setting [1] was 35.5 µM [falling, partial curve, poor fit].

For the compound `Cc1cc(C)c(C#N)c(N2CCN(C(=O)C3COc4ccccc4O3)CC2)n1` (centres undefined), the AC50 under setting [1] is 0.206 µM [rising, full curve, poor fit].

As for `Cn1cccc1C(=O)C(=O)Nc1ccccc1C(F)(F)F`, the AC50 under setting [1] is 5.01 µM [rising, full curve, poor fit].

For `CCn1c(SCC(=O)NCc2ccco2)nc2ccccc2c1=O`, the AC50 under setting [1] is 17.8 µM [falling, partial curve, poor fit].

As to `Nc1ccccc1SCc1ccccc1Cl`, the AC50 under setting [1] was 7.94 µM [rising, partial curve, poor fit].

On to `O=C(COc1cccc(Cl)c1)NCC(c1cccs1)N1CCOCC1` (centres undefined), for which the AC50 under setting [1] is 29.1 µM [falling, single point].

In the case of `O=C(Nc1cccc(F)c1)c1c(O)c2cccc3c2n(c1=O)CCC3`, the AC50 under setting [1] was 0.447 µM [rising, full curve, poor fit].

With `Cc1cc(=O)oc(C)c1C(=O)Nc1cccc2nonc12`, the AC50 under setting [1] is 3.16 µM [rising, full curve, poor fit].

On to `COC(=O)c1ccsc1NC(=O)CN1CCN(c2ccc(F)cc2)CC1`, for which, under setting [1], the AC50 was 5.8 µM [falling, partial curve, poor fit].

With `COc1ccc(CCC(=O)Nc2sc(C(=O)N(C)C)c(C)c2C#N)cc1`, the AC50 under setting [1] was 6.31 µM [rising, single point].

For the compound `O=c1cc(NCCc2ccccc2)c2ccccc2o1`, the AC50 under setting [1] was 11.2 µM [falling, single point].

Consider `COc1cc2ccccc2cc1C(=O)NC(=S)Nc1ccc(C(=O)O)cc1`, for which the AC50 under setting [1] was 0.355 µM [falling, full curve, poor fit].

For `Cn1c(=O)c2c(nc(Cc3ccc(N)cc3)n2C)n(C)c1=O`, under setting [1], the AC50 was 5.62 µM [falling, partial curve, poor fit].

As for `COc1ccc(S(=O)(=O)N2CCCN(S(=O)(=O)c3ccc(OC)c(C)c3)CC2)cc1C`, the AC50 under setting [1] is 1.64 µM [rising, partial curve].

Regarding `CCCc1cc(-c2nc(N)ncc2-c2ccc3c(c2)OCCCO3)c(O)cc1OC`, the AC50 under setting [1] was 29.1 µM [falling, single point].

On to `Nc1ncnc2c1ncn2[C@@H]1O[C@H](CNC(=O)[C@@H](N)CO)[C@@H](O)[C@H]1O`, for which, under setting [1], the AC50 is 29.1 µM [rising, single point].

As to `CC(C)C(NS(=O)(=O)c1cccc(C(F)(F)F)c1)C(=O)N1CCc2ccccc2C1` (centres undefined), under setting [1], the half-maximal activity concentration (AC50) was 11.2 µM [falling, single point].

Take `CC(=O)c1ccc(NC(=S)NCc2cccnc2)cc1`: under setting [1], the AC50 was 2.24 µM [rising, partial curve, poor fit].

As to `CCc1cc2c(CN(C)Cc3ccccc3F)cc(=O)oc2cc1O`, the AC50 under setting [1] was 12.6 µM [rising, single point].

Regarding `O=C(CSc1nc(-c2ccccc2)cs1)N1CCN(C(=O)c2ccco2)CC1`, the AC50 under setting [1] is 6.51 µM [rising, single point].

Regarding `C[C@H](CO)N1C[C@H](C)[C@@H](CN(C)S(=O)(=O)c2cn(C)cn2)Oc2c(NS(=O)(=O)c3cccs3)cccc2C1=O`, under setting [1], the AC50 is 23.1 µM [rising, single point].

Consider `O=C(c1cccn2c(=O)c3cc(Cl)ccc3nc12)N1CCOCC1`, for which the AC50 under setting [1] was 29.1 µM [rising, single point].

For `Cc1ccc(NC(=O)c2ccc3c(c2)OCO3)cc1Cl`, the half-maximal activity concentration (AC50) under setting [1] was 35.5 µM [falling, partial curve, poor fit].

Regarding `COc1cccc(NC(=O)C(=O)N2CCOCC2)c1`, the AC50 under setting [1] was 9.2 µM [falling, partial curve].

`O=C(Nc1cccc(NC(=O)c2ccco2)c1)c1cccc(Br)c1`: the AC50 under setting [1] is 20 µM [falling, partial curve, poor fit].

Regarding `COc1cc(NC(=O)c2ccc([N+](=O)[O-])cc2)ccc1NC(=O)C(C)C`, the AC50 under setting [1] is 3.55 µM [rising, partial curve, poor fit].

`O=C(CCC(=O)Nc1ccc(Br)cc1)N/N=C/c1ccccc1O`: the AC50 under setting [1] was 5.01 µM [rising, partial curve, poor fit].

As for `CCOc1ccc(NC(=O)C2CCCN(C(=O)NCc3ccccc3)C2)cc1` (centres undefined), the AC50 under setting [1] is 25.9 µM [falling, single point].

Take `C=CCN1C(=O)NC(c2ccccc2)(C(F)(F)F)S/C1=C(\C#N)c1nnc(N2CCOCC2)n1-c1ccccc1` (centres undefined): the AC50 under setting [1] was 16.4 µM [falling, partial curve].

Turning to `O=C(CSc1ccccn1)N1CCc2ccccc21`, the AC50 under setting [1] is 20 µM [falling, single point].

Regarding `CN1CCN(C(=O)CCNC(=O)Cn2ccc3ccccc3c2=O)CC1`, the AC50 under setting [1] was 29.1 µM [falling, single point].

For `Cc1sc2nc(CN3CCOCC3)nc(N3CCOCC3)c2c1C`, the AC50 under setting [1] was 6.51 µM [falling, single point].

As for `Cc1ccsc1C(=O)OCC(=O)Nc1cccc(S(=O)(=O)NC2=NCCCCC2)c1`, under setting [1], the AC50 was 20 µM [falling, single point].

As for `CC(C)CCNC(=O)c1onc(CSc2ccc(Cl)cc2)c1C(=O)NCCC(C)C`, the AC50 under setting [1] was 5.62 µM [falling, single point].

Consider `O=C(Cc1cccs1)N/N=C/C(Br)=C/c1ccccc1`, for which the AC50 under setting [1] is 10 µM [rising, partial curve].

In the case of `O=C(c1cccc(C(F)(F)F)c1)C1CCCN(Cc2cccn2-c2ccccn2)C1` (centres undefined), the AC50 under setting [1] is 14.1 µM [falling, single point].

For `Cc1cc(C)c(C(=O)C2OC(=O)C(C)(C)C(=O)C2(C)C)c(C)c1` (centres undefined), the AC50 under setting [1] was 5.17 µM [rising, partial curve, poor fit].

For `COc1ccc(/C=N/NC(=O)c2ccoc2C)cc1O`, the AC50 under setting [1] is 20.6 µM [falling, partial curve, poor fit].

In the case of `CC(C)(C)OC(=O)NN1CC(=O)N2Cc3ccccc3C[C@@H]2C1=O`, under setting [1], the AC50 is 3.98 µM [rising, partial curve, poor fit].

For the compound `O=C(Nc1ccc(-c2csc(Nc3ccc(Cl)cc3)n2)cc1)c1cc([N+](=O)[O-])cc(C(F)(F)F)c1`, the AC50 under setting [1] was 14.1 µM [rising, partial curve, poor fit].

Take `O=C(Nc1cc(Cl)cc(Cl)c1)C(NCC1CCCO1)c1ccccc1` (centres undefined): the AC50 under setting [1] is 29.1 µM [falling, single point].

`COc1ccc(/C=C2\SC(=S)N(CCC(=O)N3CCCCC3CCO)C2=O)cc1` (centres undefined): the AC50 under setting [1] was 2 µM [falling, full curve].

With `COc1ccc(C2CC(c3ccccc3)=NN2S(=O)(=O)c2ccccc2)cc1` (centres undefined), the AC50 under setting [1] was 11.2 µM [rising, partial curve, poor fit].

In the case of `Cc1ccc2nc(-c3cccc(NS(C)(=O)=O)c3)cc(-c3ccccc3)c2c1`, the AC50 under setting [1] was 23.1 µM [falling, single point].

With `CC1CCN(CCC(=O)N/N=C/c2ccc([N+](=O)[O-])cc2)CC1`, the AC50 under setting [1] is 2.82 µM [falling, partial curve, poor fit].

Turning to `Cn1c(=O)n(C)c2cc(/C=N/NC(=O)c3cc4cc(Br)ccc4o3)ccc21`, the AC50 under setting [1] was 1.26 µM [falling, full curve, poor fit].

Take `Cc1ccc(-c2nnc(Nc3ccc4c(c3)OCO4)c3ccccc23)cc1S(N)(=O)=O`: the AC50 under setting [1] was 11.6 µM [falling, partial curve, poor fit].

With `O=C(O)CS(=O)CC(=O)Nc1cccc(C(F)(F)F)c1` (centres undefined), the AC50 under setting [1] is 31.6 µM [falling, single point].
